Binding data for one molecule are collected here from patent US20210061896A1.

Amino acid sequences for entries named in this document (tags omitted). A change or cut given only in a name is not applied to a line headed by its entry.
UniProt P23560: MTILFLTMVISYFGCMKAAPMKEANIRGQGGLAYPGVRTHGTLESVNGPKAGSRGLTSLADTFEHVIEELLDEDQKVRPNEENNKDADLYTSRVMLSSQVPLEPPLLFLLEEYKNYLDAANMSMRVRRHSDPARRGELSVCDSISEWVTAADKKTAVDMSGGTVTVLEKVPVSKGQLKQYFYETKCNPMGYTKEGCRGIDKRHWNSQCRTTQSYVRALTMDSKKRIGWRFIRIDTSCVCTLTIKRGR

These are yes or no findings as the source states them, for the method shown. A result given as binding can be weak or reduced; the word gives no strength.

The assay concerns the target human proBDNF precursor protein (human) (UniProt P23560). The experiment in a line: single-phage ELISA, antigen coated 100 ng/well.

B1: single-chain antibody 2H8 (scFv)
scFv: EVQLVETGGGLVQPGGSLRLSCAASGFTFSSYGMHWVRQAPGKGLEWVSVISGSGDSTYYAESVKGRFTISRDNARNTVYLQMNSLRAEDTAVYYCASGILTGYVFDYWGKGTMVTVSSGGGGSGGGGSGGGGSDVVMTQSPLSLPVTLGQPASISCRSSQSLVSNDGNTYLNWFQQRPGQPPRRLIYMVSKWDSGVPDRFSGSGSGTDFTLRISRVEAEDVGVYYCMQSTHWPPTFGGGTKLEIKR
As to B1, the binding entry was “binds”.
